A: 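Primary screen of methionyl-tRNA synthetase; the read-out is not stated. Target: Methionyl-tRNA synthetase (putative), Leishmania donovani (UniProt E9BF75). The test concentration is not given. The values are filed as inhibition. Size under these conditions: about 68,000 compounds, about 24 of them at 50% or above in at least one test.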
B: 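Assay on Mycobacterium tuberculosis, filed only as a heat shock assay from Cornell; the read-out is not stated. The concentration is filed as 10 mM, unlikely as a test dose, so the dose is not known. The record gives no direction; compounds that gave an IC50 in retests scored well above the rest, so higher reads as stronger inhibition. Of about 69,000 compounds tested this way, about 930 (1.4%) reached 50% or more in at least one test.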

Chains of the proteins cited; added tags and fusions are not shown.
UniProt E9BF75, entry or part of it: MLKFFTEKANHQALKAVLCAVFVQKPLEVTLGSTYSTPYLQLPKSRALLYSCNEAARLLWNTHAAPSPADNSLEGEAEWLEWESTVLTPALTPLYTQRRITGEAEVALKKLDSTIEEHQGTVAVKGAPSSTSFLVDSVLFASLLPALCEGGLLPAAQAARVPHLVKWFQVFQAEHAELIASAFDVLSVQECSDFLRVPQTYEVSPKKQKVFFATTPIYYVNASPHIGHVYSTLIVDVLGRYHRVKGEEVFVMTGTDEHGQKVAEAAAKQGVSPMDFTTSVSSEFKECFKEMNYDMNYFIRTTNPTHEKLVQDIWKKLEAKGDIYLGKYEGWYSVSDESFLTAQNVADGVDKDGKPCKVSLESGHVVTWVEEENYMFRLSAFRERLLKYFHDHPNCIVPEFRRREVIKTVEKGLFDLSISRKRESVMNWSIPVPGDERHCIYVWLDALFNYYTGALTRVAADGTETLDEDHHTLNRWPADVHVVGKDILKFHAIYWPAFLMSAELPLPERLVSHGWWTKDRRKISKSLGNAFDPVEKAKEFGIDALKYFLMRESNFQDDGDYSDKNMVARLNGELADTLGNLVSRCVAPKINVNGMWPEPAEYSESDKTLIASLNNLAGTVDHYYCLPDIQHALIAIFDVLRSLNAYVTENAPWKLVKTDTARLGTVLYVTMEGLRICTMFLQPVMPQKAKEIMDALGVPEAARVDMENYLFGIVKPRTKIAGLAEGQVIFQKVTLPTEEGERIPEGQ

All values are in %. How 0% and 100% were set is not recorded. Most values in the screen are low, and negative values occur. The compounds are a random part of those screened. A dash means the value is not listed here; it may have been measured.

- [H][C@@]12CCN(C[C@@H]1CN1CCCCC1)[C@@H](CNC(=O)Nc1ccccc1)C2 | B: 4.553%
- CCOc1ncccc1NC(=O)N1CCN(Cc2ccncc2)CC1 | A: 9.206%; B: -6.285%
- O=C(c1ccccc1)N1CCO[C@@H]2CNC[C@@H]21 | A: 13.51%
- CN(C)C(=O)[C@@]12CCO[C@@H]1CCN(Cc1ccc3c(c1)OCO3)C2 | A: 10.38%
- COc1ccc(CC(=O)Nc2c(C)nc(N3CCOCC3)nc2C)cc1 | A: 9.353%; B: 8.027%
- Cc1ccccc1C(C)NC(=O)CN1CCN(Cc2ccc(Br)s2)CC1 (centres undefined) | A: 7.519%; B: 0.5311%
- CCn1c(SCC(=O)O)nnc1C(C)NC(=O)c1ccc(Cl)cc1 (centres undefined) | A: 17.84%; B: 14.37%
- O=C(O)C(F)(F)F.O=C(O)C(F)(F)F.[H][C@@]12CCN(c3ccncn3)C[C@@]1([H])O[C@@H](C(=O)NCc1cccnc1)C2 | B: -21.09%
- CC(CN1CCN(C)CC1)NC(=O)c1cc(Cl)c2c(c1)OCO2 (centres undefined) | A: 19.47%; B: 3.315%
- CN(C)C(=O)COCc1cncc2c1CCN(Cc1ccccc1)C2.O=C(O)C(F)(F)F.O=C(O)C(F)(F)F | B: -18.72%
- Cc1nn(C)c(N(C)C)c1CNC(C)COc1ccccc1F (centres undefined) | A: 15.34%; B: -4.501%
- N[C@H]1CN(C(=O)c2ccc3[nH]c(CO)nc3c2)C[C@@H]1c1ccccc1 | A: 9.288%; B: -35.36%
- CCS(=O)(=O)N1CCC2(CC1)CN(c1cccnc1)C(=O)CO2.O=C(O)C(F)(F)F | B: 20.93%
- Cc1c(C2CC2)n[nH]c1NC(=O)C1CCCN(C(=O)NCC(C)C)C1 (centres undefined) | A: 7.317%; B: 2.732%
- CC(=O)N1CCC(NC(=O)CN2CCCc3c(C)ccc(F)c32)CC1 | A: 12.7%; B: 19.1%
- OC[C@@H]1CCCN1c1ccc(-c2nc(CCc3ccccc3)no2)cn1 | A: 11.54%; B: 28.22%
- CC(=O)N1Cc2ccccc2CC1C(=O)Nc1ccc(N(C)C)cn1 (centres undefined) | A: 18.82%; B: 20.07%
- O=c1ccc2c(n1CC1CC1)CCN(c1ncccn1)CC2 | A: 14.75%; B: 29.04%
- [H][C@]12CC[C@]([H])(CN(C(=O)c3ccc(Cl)cc3)C1)N(CCOC)C2 | B: -3.294%
- O=C(NCCCn1cncn1)N1CCC(N2CCCCC2)CC1 | A: 19.13%; B: -16.04%
- Fc1cnc(N2CCCC3(COCCN(c4nccs4)C3)C2)nc1.O=C(O)C(F)(F)F.O=C(O)C(F)(F)F (centres undefined) | B: 4.049%
- Cc1ccsc1[C@@H]1CCN(C(=O)c2cc3ccccc3[nH]2)C[C@H]1O | A: 13.27%; B: 45.49%
- CC1N(C)C(=O)COC12CCN(Cc1nccs1)CC2 (centres undefined) | A: 10.43%
- O=C(CN1CCCCC1Cn1cncn1)NCCOc1ccccc1 (centres undefined) | A: 17.04%; B: 5.454%
- COc1c(CNCc2ccc(C(=O)N3CCCC3)cc2)c(C)nn1C.Cl | B: -14.26%
- Cc1csc(N2CCCN(C(=O)C(C)n3cncn3)CC2)n1 (centres undefined) | A: 20.11%; B: -16.92%
- CCn1cnnc1CNC(=O)N1CCCN(C(C)=O)CC1 | A: 13.19%; B: -7.567%
- CC(C)C(O)CNC(=O)Nc1cnn(C(C)C)c1 (centres undefined) | A: 25.54%; B: -12.65%
- CCS(=O)(=O)NCCNc1c(C#N)cnc2c(F)cc(F)cc12 | A: 9.192%; B: -11.72%
- Cn1c(C(F)(F)F)nn(CCNC(=O)CCc2ccccc2)c1=O | A: -1.049%; B: -8.282%
- [H][C@@]12C[C@@H](Oc3ccccc3)C[C@]1([H])CN(C(=O)c1cnn(CC)c1)C2 | B: 19.67%
- O=C(Cc1c[nH]c(=O)[nH]c1=O)N1CCCCC1CCc1cccc(O)c1 (centres undefined) | A: 11.85%; B: -8.45%
- CN1C[C@@H](C(=O)N2CCCOCC2)[C@@]2(CCc3ccccc3C(=O)N2)C1 | A: 16.83%; B: -2.455%
- OCc1ccc(-c2c(-c3ccccc3)ncn2CCN2CCOCC2)o1 | A: -2.703%; B: -20.04%
- CN(Cc1cn2c(n1)CN(C(=O)CC1CC1)CC2)Cc1ccco1.O=C(O)C(F)(F)F | B: -190.2%
- CCOc1ccc(S(=O)(=O)NC(=O)c2c(C)noc2C(C)C)cc1 | A: 1.567%; B: 3.014%
- Cc1nccn1C1CCCN(C(=O)C2=NN(C)C(=O)CC2)C1 (centres undefined) | A: 1.961%; B: 7.349%
- Fc1ccc(CN2CCC3(CC2)CCN(c2ncccn2)CC3)cc1 | A: 4.667%
- O=C1COc2ccc(S(=O)(=O)NCCC3=CCCCC3)cc2N1 | A: 6.977%; B: 19.57%
- Cc1noc(C)c1CN(C)C(=O)NC1CCC(O)CC1 (centres undefined) | A: 22.69%; B: 3.349%
- [H][C@]12CC[C@]([H])(CN(c3cc(N)nc(SC)n3)C1)N(CC1CC1)C2=O | B: 13.57%
- CS(=O)(=O)NC[C@]12COC[C@H]1CN(C(=O)c1cnccn1)C2 | A: -0.7092%
- CCn1nc(C)c(S(=O)(=O)Nc2ccccc2C(=O)OC)c1C | A: 6.87%; B: -26.89%
- O=C(c1cc[nH]n1)N1CCC(F)(F)C2(CCN(c3ccccn3)C2)C1 (centres undefined) | A: -2.837%
- CN1CCC(c2nnc(CN3CCOCC3)n2C)CC1 | A: 16.86%; B: 8.695%
- Cc1cccc(C(=O)N2CCCN(CCCSCC#N)CC2)c1 | A: -3.681%; B: -3.431%
- Cc1cccc(CN2CCC3(CCCN(Cc4cnn(C)c4)C3)C2)n1 (centres undefined) | A: 6.452%

For reference, 4 entries once more:

SMILES	A	B
CCOc1ncccc1NC(=O)N1CCN(Cc2ccncc2)CC1	9.206%	-6.285%
O=C(O)C(F)(F)F.O=C(O)C(F)(F)F.[H][C@@]12CCN(c3ccncn3)C[C@@]1([H])O[C@@H](C(=O)NCc1cccnc1)C2	-	-21.09%
O=C(CN1CCCCC1Cn1cncn1)NCCOc1ccccc1 (centres undefined)	17.04%	5.454%
CCn1nc(C)c(S(=O)(=O)Nc2ccccc2C(=O)OC)c1C	6.87%	-26.89%

Source: ChEMBL document CHEMBL3988442, “University of Dundee, Small-Polar-MMV Screening Library” (2021).